US6372772B1, “Inhibitors of redox signaling and methods of using same” (Prolx Pharmaceuticals Corporation, priority 1997, dated 2002)
In brackets after ≈: the same amount, converted by molar mass. The match of structure and compound is tentative.

Chains of the proteins cited; added tags and fusions are not shown. Residues count along the entry.
UniProt Q16881, 151-649: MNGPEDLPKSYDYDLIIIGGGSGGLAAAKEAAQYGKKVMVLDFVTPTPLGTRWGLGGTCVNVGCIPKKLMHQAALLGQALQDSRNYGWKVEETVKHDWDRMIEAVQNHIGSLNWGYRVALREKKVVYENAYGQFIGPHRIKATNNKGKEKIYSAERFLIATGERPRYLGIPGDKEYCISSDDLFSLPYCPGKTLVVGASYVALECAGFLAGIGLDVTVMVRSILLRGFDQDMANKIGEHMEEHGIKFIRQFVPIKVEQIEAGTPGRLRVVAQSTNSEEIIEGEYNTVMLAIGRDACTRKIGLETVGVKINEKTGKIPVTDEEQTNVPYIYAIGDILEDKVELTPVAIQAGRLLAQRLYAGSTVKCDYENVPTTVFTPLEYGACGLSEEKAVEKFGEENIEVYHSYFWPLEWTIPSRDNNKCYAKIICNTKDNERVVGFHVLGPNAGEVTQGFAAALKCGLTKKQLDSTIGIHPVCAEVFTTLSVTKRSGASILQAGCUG
UniProt P00390, 44-522: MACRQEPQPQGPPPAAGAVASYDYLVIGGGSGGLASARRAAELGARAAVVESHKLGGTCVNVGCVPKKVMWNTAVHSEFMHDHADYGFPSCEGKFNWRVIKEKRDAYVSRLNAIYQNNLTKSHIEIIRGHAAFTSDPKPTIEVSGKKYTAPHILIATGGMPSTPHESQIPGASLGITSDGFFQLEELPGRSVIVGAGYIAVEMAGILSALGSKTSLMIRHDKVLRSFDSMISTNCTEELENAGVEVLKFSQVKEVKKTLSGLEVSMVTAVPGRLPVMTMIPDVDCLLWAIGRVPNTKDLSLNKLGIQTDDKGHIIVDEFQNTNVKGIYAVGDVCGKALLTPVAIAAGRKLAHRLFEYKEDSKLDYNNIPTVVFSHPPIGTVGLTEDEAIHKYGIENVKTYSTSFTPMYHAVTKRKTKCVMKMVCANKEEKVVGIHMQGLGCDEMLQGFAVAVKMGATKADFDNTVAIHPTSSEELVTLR

Experiments:
leukemia cell line = details: mean 50% growth inhibition concentration; cited from earlier work
[1] = test system: NCI's panel of 60 human cancer cell lines; details: mean 50% growth inhibition concentration, entire cell line panel; cited from earlier work
[2] = biological target: thioredoxin reductase/thioredoxin (Homo sapiens, UniProt Q16881); assay: thioredoxin reductase/thioredoxin-dependent insulin reduction assay; format: biochemical; details: for IC50 (μg/ml) in TR/Trx Assay: Table I, 30 min preincubation; for in vitro IC50 TR/Trx (μg/ml): Table III; for IC50TRTrx: Table II; for TR/TRTrx: ratio of IC50 TR alone and IC50 TR/Trx assay
thioredoxin reductase = thioredoxin reductase (Homo sapiens, UniProt Q16881); assay: thioredoxin reductase assay (DTNB reduction); details: for IC50TR: Table II, thioredoxin reductase alone; for GR/TR: ratio of IC50 glutathione reductase to IC50 thioredoxin reductase
glutathione reductase = glutathione reductase (Homo sapiens, UniProt P00390); assay: glutathione reductase assay (DTNB reduction); format: biochemical; details: Table II

SMILES	GI50 (μg/ml) Leukemias (leukemia cell line) [µg/mL]	GI50 (μg/ml) All Tumors [1] [µg/mL]	IC50 (μg/ml) in TR/Trx Assay [2] [µg/mL]	in vitro IC50 TR/Trx (μg/ml) [2]	IC50TR (thioredoxin reductase) [µg/mL]	GR/TR (thioredoxin reductase)	IC50TRTrx [2] [µg/mL]	TR/TRTrx [2]	IC50GR (glutathione reductase) [µg/mL]
O=C1C=CC(=O)c2c1ccc1c3ccccc3n(-c3ccccn3)c21	1.8 (≈ 5.55 µM)	8.5 (≈ 26.2 µM)	2.5 (≈ 7.71 µM)	≦5.0 μg/ml					
CC12CCCCC1=C(F)C(F)(F)S2 (centres unmarked)	3.8 (≈ 18.2 µM)	7.2 (≈ 34.6 µM)	6.7 (≈ 32.2 µM)	≦10.0 μg/ml	50 (≈ 240 µM)	1	6.65 (≈ 31.9 µM)	7.5	35 (≈ 168 µM)
C=C1CC(C)(COc2ccc3c(C)cc(=O)oc3c2)OC1=O (centres unmarked)	0.1 (≈ 0.333 µM)	0.5 (≈ 1.66 µM)	35.0 (≈ 117 µM)						
COc1ccc2c3ccc4c(c3n(C)c2c1)C(=O)C=CC4=O	1.1 (≈ 3.78 µM)	9.2 (≈ 31.6 µM)	16.0 (≈ 54.9 µM)						
C=C1C(=O)C23CC[C@@H]4C(C)(C(=O)OC)CCCC4(C)[C@@H]2CCC1(O)C3 (some centres unmarked)	0.1 (≈ 0.289 µM)	0.5 (≈ 1.44 µM)	1.3 (≈ 3.75 µM)	≦5.0 μg/ml	7 (≈ 20.2 µM)	4	1.26 (≈ 3.64 µM)	5.6	30 (≈ 86.6 µM)
Cn1c2ccccc2c2c(-c3ccccc3)cc3c(c21)C(=O)C=CC3=O	0.1 (≈ 0.296 µM)	0.8 (≈ 2.37 µM)	17.0 (≈ 50.4 µM)						
CC(=O)OC1C=C(C=O)C(O)(C=O)C2(C)CCCC(C)(C)C12 (centres unmarked)	0.1 (≈ 0.324 µM)	0.3 (≈ 0.973 µM)	7.0 (≈ 22.7 µM)	≦10.0 μg/ml					
CCOC(=O)C(=O)CC(=O)C(Br)C(Br)c1ccc(Cl)cc1 (centres unmarked)	7.3 (≈ 16.6 µM)	18.4 (≈ 41.8 µM)	1.9 (≈ 4.31 µM)	≦5.0 μg/ml	5 (≈ 11.4 µM)	16	1.89 (≈ 4.29 µM)	2.7	80 (≈ 182 µM)
CC1(c2cccc(C3CCC4(C=CC3=O)OCCO4)c2)OCCO1 (centres unmarked)	1.2 (≈ 3.63 µM)	4.0 (≈ 12.1 µM)	33.0 (≈ 99.9 µM)						
O=C1OC(OC/C(Br)=C(\Br)COC2OC(=O)C(Cl)=C2Cl)C(Cl)=C1Cl (centres unmarked)	0.4 (≈ 0.73 µM)	2.7 (≈ 4.93 µM)	0.84 (≈ 1.53 µM)		5 (≈ 9.13 µM)	3	0.84 (≈ 1.53 µM)	6.0	15 (≈ 27.4 µM)
C=C1C(=O)OC2CC(C)C3C=CC(=O)C3CC12 (centres unmarked)	0.2 (≈ 0.861 µM)	0.5 (≈ 2.15 µM)	15.0 (≈ 64.6 µM)						
CC(C)=CCC(OC(=O)C=C(C)C)C1=CC(=O)c2c(O)ccc(O)c2C1=O (centres unmarked)	0.1 (≈ 0.27 µM)	0.3 (≈ 0.81 µM)	0.63 (≈ 1.7 µM)	≦1.0 μg/ml	4 (≈ 10.8 µM)	4	0.63 (≈ 1.7 µM)	6.4	15 (≈ 40.5 µM)
C=C1C(=O)OC2C1CCC(C)=C1C=CC(=O)C12C (centres unmarked)	1.5 (≈ 6.14 µM)	3.1 (≈ 12.7 µM)	50.0 (≈ 205 µM)						
O=C1C=CC2=[N+]([O-])C(c3ccccc3)(c3ccccc3)C(=Nc3ccccc3)C2=C1	22.2 (≈ 56.9 µM)	1.1 (≈ 2.82 µM)	3.0 (≈ 7.68 µM)						
CC(CCC#N)(CCC#N)C(=O)CC(O)(C(F)(F)F)C(F)(F)F	0.2 (≈ 0.581 µM)	1.7 (≈ 4.94 µM)	10.0 (≈ 29 µM)	≦10.0 μg/ml					
